In this experiment the target is T1, Tudor staphylococcal nuclease (Tudor-SN) (bovine (endogenous in BMEC)) (UniProt Q863B3).
T1 sequence: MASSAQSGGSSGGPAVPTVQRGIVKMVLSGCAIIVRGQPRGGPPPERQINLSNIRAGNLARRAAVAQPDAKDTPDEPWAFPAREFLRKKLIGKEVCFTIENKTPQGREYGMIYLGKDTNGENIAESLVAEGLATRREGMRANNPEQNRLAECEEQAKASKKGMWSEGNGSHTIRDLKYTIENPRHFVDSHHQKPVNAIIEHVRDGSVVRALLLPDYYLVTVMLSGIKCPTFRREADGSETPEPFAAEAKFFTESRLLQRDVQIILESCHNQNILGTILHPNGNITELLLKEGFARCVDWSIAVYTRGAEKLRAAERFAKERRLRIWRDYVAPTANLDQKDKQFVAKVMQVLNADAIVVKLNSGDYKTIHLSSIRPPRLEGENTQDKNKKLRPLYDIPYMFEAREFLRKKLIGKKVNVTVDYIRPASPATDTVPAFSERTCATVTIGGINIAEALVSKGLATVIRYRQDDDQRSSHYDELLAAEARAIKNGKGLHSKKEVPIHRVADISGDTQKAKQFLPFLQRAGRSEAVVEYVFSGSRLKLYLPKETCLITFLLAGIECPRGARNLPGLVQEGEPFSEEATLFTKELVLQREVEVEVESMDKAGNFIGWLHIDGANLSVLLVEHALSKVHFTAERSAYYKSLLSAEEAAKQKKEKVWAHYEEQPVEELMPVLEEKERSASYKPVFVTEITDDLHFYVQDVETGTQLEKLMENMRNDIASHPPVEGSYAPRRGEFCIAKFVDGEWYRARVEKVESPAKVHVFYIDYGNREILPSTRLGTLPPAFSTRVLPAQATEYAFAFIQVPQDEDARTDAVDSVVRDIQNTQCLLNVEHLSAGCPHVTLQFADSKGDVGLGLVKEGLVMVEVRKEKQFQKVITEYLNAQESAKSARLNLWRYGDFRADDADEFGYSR
Put plainly: co-IP; 200 ug nuclear protein lysate of BMEC on columns with 20 ug immobilised Tudor-SN antibody (Pierce Co-IP kit), overnight at 4 °C; blot for p-Stat5; control preimmune IgG; cells untreated or stimulated 24 h with Met (0.6 mmol/L) or estrogen (2.72 x 10^-2 ug/mL), interaction enhanced by Met and E.

Chains of the proteins cited; added tags and fusions are not shown.
UniProt Q95115: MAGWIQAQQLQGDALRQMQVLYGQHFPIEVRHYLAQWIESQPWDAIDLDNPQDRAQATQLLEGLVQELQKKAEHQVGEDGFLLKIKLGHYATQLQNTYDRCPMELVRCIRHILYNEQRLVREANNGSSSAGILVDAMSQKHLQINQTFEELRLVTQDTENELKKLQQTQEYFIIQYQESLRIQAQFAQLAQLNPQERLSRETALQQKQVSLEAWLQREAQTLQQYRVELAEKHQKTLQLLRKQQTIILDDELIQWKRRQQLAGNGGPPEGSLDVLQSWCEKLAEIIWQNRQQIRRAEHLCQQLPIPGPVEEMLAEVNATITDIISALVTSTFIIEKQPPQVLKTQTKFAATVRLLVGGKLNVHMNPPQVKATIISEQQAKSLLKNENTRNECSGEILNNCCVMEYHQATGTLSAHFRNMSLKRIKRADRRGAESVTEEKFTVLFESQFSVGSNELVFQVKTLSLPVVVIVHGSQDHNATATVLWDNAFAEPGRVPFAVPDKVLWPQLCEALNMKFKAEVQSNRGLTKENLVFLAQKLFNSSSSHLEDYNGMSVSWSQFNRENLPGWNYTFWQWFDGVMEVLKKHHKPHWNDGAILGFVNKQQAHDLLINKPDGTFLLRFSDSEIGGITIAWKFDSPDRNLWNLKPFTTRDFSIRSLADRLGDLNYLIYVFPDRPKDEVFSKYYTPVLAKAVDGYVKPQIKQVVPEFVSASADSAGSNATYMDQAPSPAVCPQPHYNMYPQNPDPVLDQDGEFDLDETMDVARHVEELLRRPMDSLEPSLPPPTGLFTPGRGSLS

These are yes or no findings as the source states them, for the method shown. In cells and extracts the contact can be indirect. Some entries that bind do so weakly or less than the wild type.

Turning to “p-Stat5 (phosphorylated signal transducer and activator of transcription 5) (from UniProt Q95115 1-794)”, the binding entry is recorded as “binds”.

The record behind these values is publication PMC4691155.
